The target of test [1] is MITA (endogenous, decidual tissue) (human (endogenous in decidual tissue)) (UniProt Q86WV6). Kind of test: co-IP; endogenous co-IP from decidual tissue lysates (URSA group and control group), western & IP lysate; immunoprecipitation with a monoclonal antibody against MITA on magnetic beads, overnight at 4 °C; normal rabbit IgG as negative control; western blot.
Test [2] addresses MITA (endogenous, M1 and M2 macrophages polarized from THP-1 cells) (human (endogenous in THP-1)) (UniProt Q86WV6). Kind of test: co-IP; endogenous co-IP from lysates of M1 and M2 macrophages polarized from THP-1 cells, western & IP lysate; immunoprecipitation with a monoclonal antibody against MITA on magnetic beads, overnight at 4 °C; normal rabbit IgG as negative control; western blot.

The chains behind the UniProt entries cited, without tags or fusion partners.
UniProt Q86WV6: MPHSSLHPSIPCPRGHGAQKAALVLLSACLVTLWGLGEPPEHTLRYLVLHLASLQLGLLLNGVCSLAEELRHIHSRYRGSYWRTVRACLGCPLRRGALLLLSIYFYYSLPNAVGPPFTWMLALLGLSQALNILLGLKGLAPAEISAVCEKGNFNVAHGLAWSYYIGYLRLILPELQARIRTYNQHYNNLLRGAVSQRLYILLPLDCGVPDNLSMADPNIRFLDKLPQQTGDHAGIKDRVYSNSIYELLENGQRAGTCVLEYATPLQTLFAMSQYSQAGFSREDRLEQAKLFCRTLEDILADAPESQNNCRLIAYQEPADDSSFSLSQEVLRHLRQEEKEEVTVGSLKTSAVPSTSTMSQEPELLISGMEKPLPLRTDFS

In a further test the target is HA-tagged MITA (HA-MITA) (UniProt Q86WV6). Kind of test: co-IP; exogenous co-IP from 293 T cells cotransfected with a Flag-TRIM38 construct, HA-MITA and His-K48, collected 24 h after transfection; lysis in 25 mM Tris-HCl pH 7.4, 150 mM NaCl, 1% NP-40, 0.25% sodium deoxycholate, 1 mM EDTA; immunoprecipitation with antibodies against Flag, HA or His on magnetic beads; normal rabbit IgG as negative control; western blot.

These are yes or no findings as the source states them, for the method shown. In cells and extracts the contact can be indirect. Some entries that bind do so weakly or less than the wild type. For part of these data: Tags and fused reporters may be left off the sequences shown.

Our source for the binding values is paper PMC10682411.

B1: TRIM38 (endogenous, decidual tissue) (protein, UniProt O00635 1-465)
chain: MASTTSTKKMMEEATCSICLSLMTNPVSINCGHSYCHLCITDFFKNPSQKQLRQETFCCPQCRAPFHMDSLRPNKQLGSLIEALKETDQEMSCEEHGEQFHLFCEDEGQLICWRCERAPQHKGHTTALVEDVCQGYKEKLQKAVTKLKQLEDRCTEQKLSTAMRITKWKEKVQIQRQKIRSDFKNLQCFLHEEEKSYLWRLEKEEQQTLSRLRDYEAGLGLKSNELKSHILELEEKCQGSAQKLLQNVNDTLSRSWAVKLETSEAVSLELHTMCNVSKLYFDVKKMLRSHQVSVTLDPDTAHHELILSEDRRQVTRGYTQENQDTSSRRFTAFPCVLGCEGFTSGRRYFEVDVGEGTGWDLGVCMENVQRGTGMKQEPQSGFWTLRLCKKKGYVALTSPPTSLHLHEQPLLVGIFLDYEAGVVSFYNGNTGCHIFTFPKASFSDTLRPYFQVYQYSPLFLPPPGD
B1: in test [1], the binding entry is on record as “binds”.

B2: TRIM38 (endogenous, M1 and M2 macrophages polarized from THP-1 cells) (protein, UniProt O00635 1-465)
chain: B1 chain
As to B2, in test [2], the binding entry is given as “binds”.

B3: Flag-tagged TRIM38 (Flag-TRIM38) (protein, UniProt O00635 1-465)
chain: B1 chain
In the case of B3, the binding result in the test with HA-tagged MITA (HA-MITA) is listed as “binds”.
